Results deposited as PubChem BioAssay AID1259254 (NCATS, 2017)
The deposit covers about 59,000 reagents; this is a part drawn at random. About 1,550 of them (2.6%) count as active. 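G2 share is only a proxy for re-replication; each gene was hit by three separate siRNAs, and active genes were retested.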 The raw values are shown without normalisation. The numbers tell different reagents against one gene apart. Not given: the amount of reagent.

- Screen: 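Finding genes that stop cells copying their DNA twice in one cycle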 (primary screen)
- Cells: human HCT116 colorectal cancer cells
- Reagents: single siRNA against human genes
- Duration: 3 days
- Measurement: 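Nuclei stained with Hoechst and imaged; cell-cycle phase assigned by DNA content; G2 share scaled per plate, non-targeting siRNA 0%, GMNN siRNA 100%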
- Reading the numbers: G2 robust z-score and G2 cells, % of GMNN control: higher = more G2 cells, more excess DNA replication; raw share of cells in G2: higher = larger share of cells with G2 DNA content
- Hit rule: 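An siRNA counts as active if its G2 robust z-score lies at least 5 MADs above the screen median; here such calls match roughly 38% of GMNN control or more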

target gene	reagent no.	G2 robust z-score	G2 cells, % of GMNN control	raw share of cells in G2 (%)	call
TFPI2	1	1.96	16.8	12.7	inactive
TFPI2	2	-0.104	2.24	5.09	inactive
TFPI2	3	2.68	21.8	11.7	inactive
OR4D11	1	2.63	21.5	11.4	inactive
OR4D11	2	3.44	27.2	12.4	inactive
OR4D11	3	-0.275	1.04	3.52	inactive
LMNA	1	0.628	7.39	5.63	inactive
LMNA	2	6.06	45.6	23	active
LMNA	3	2.25	18.8	12.9	inactive
FUT9	1	-0.704	-1.98	3.2	inactive
FUT9	2	-0.294	0.902	6.09	inactive
FUT9	3	-0.646	-1.58	5.86	inactive
PDHA1	1	-1.73	-9.19	1.81	inactive
PDHA1	2	0.103	3.69	5.42	inactive
PDHA1	3	-0.871	-3.16	2.54	inactive
DDX43	1	1.37	12.6	8.95	inactive
DDX43	2	-1.15	-5.12	4.19	inactive
DDX43	3	-0.817	-2.78	3.18	inactive
UTP11	1	2.14	18	10.7	inactive
UTP11	2	0.261	4.8	8.13	inactive
UTP11	3	7.85	58.2	25.7	active
SPATA33	1	-0.543	-0.855	3.75	inactive
SPATA33	2	0.57	6.98	5.41	inactive
SPATA33	3	-0.0877	2.35	2.51	inactive
ABCA10	1	1.42	13	11.3	inactive
ABCA10	2	0.0919	3.61	5.01	inactive
ABCA10	3	-1.2	-5.49	4.31	inactive
ZNF17	1	-0.786	-2.56	2.67	inactive
ZNF17	2	-1.39	-6.83	2.94	inactive
ZNF17	3	-0.642	-1.55	2.69	inactive
KANSL2	1	0.616	7.3	6.22	inactive
KANSL2	2	0.55	6.84	7.15	inactive
KANSL2	3	-0.216	1.45	3.67	inactive
POF1B	1	-0.241	1.28	4.97	inactive
POF1B	2	0.243	4.68	6.35	inactive
POF1B	3	1.02	10.1	5.14	inactive
ZNF705A	1	3.28	26.1	12.1	inactive
ZNF705A	2	-0.213	1.47	3.67	inactive
ZNF705A	3	-0.953	-3.74	2.21	inactive
PTGER2	1	3.59	28.2	15.9	inactive
PTGER2	2	-0.0383	2.7	5.46	inactive
PTGER2	3	-0.846	-2.99	2.35	inactive
SMARCD3	1	-1.96	-10.8	2.05	inactive
SMARCD3	2	-1.49	-7.5	1.98	inactive
SMARCD3	3	1.29	12	7.94	inactive
MAF1	1	1.56	13.9	8.74	inactive
MAF1	2	0.0728	3.48	4.49	inactive
MAF1	3	0.0799	3.53	3.48	inactive
ZNF319	1	1.79	15.6	8.29	inactive
ZNF319	2	0.86	9.02	9.98	inactive
ZNF319	3	-0.0409	2.68	4.47	inactive
UBE3B	1	-1.08	-4.62	2.74	inactive
UBE3B	2	-0.424	-0.0169	5.66	inactive
UBE3B	3	-0.9	-3.37	3.52	inactive
HMGN2P18	1	-0.447	-0.177	3.11	inactive
HMGN2P18	2	1.07	10.5	5.89	inactive
HMGN2P18	3	-0.752	-2.32	2.31	inactive
ITPRIPL1	1	-1.03	-4.28	1.57	inactive
ITPRIPL1	2	2.26	18.9	10.2	inactive
ITPRIPL1	3	-0.757	-2.36	2.18	inactive
CP	1	1.29	12	9.26	inactive
CP	2	9.5	69.8	30.5	active
CP	3	-0.0427	2.67	5.01	inactive
GPR75	1	-0.458	-0.258	5.75	inactive
GPR75	2	1.78	15.5	9.94	inactive
GPR75	3	-0.33	0.647	3.47	inactive
ITPKA	1	0.85	8.95	8.56	inactive
ITPKA	2	-1.4	-6.9	3.08	inactive
ITPKA	3	-0.65	-1.6	3.46	inactive
